In patent US12252459B2, “Hydrazone amide derivatives and use thereof in preparation of anti-osteoporosis drugs” (SHENZHEN CELL INSPIRE PHARMACEUTICAL DEVELOPMENT CO., LTD., priority 2019, dated 2025):
Some entries share one result that the patent states for a list of compounds.

system: RANKL-induced osteoclast differentiation of RAW264.7 cells; test: Osteoclast differentiation inhibition experiment (RANKL-induced, TRAP staining); assay type: cell-based; conditions: 100 ng/ml RANKL, 5 days, osteoclasts with 3 or more nuclei counted
Method: Example 33: Osteoclast Differentiation Inhibition Experiment
RAW264.7 cells were cultured in vitro using DMEM high glucose medium containing 10% fetal bovine serum at 37° C. under 5% CO2 for routine maintenance culture and passage.
S2. Compound Intervention
The logarithmic growth phase cells were collected and formulated into a cell suspension at a concentration of 2×10^4 cells/mL, and the cell suspension were added to a 96-well cell culture plate. After culturing in a carbon dioxide incubator for 24 hours, the culture medium was replaced with a medium containing 100 ng/ml RANKL and the compound at different concentrations to continue culturing for 5 days, while changing the medium containing the same RANKL concentration and compound concentration every 2 days. The osteoclasts were stained with the TRAP staining method and measured on day 5. Three wells were set for each concentration, and a control group without the compound treatment was set for comparison.
The differentiated osteoclasts were stained with TRAP kit, and the number of osteoclasts fused by 3 or more nuclei was counted.
S4. Processing of Results
The inhibition rate of each compound on RANKL-induced osteoclast differentiation was calculated according to the following equation: […]
An osteoclast differentiation inhibition curve of each compound was plotted with the osteoclast differentiation inhibition rate as the ordinate and the logarithm of the compound concentration as the abscissa. According to the osteoclast differentiation inhibition rate by each compound, the half maximal inhibitory concentration IC50 was calculated, i.e., the concentration of the compound that is required for 50% osteoclast differentiation inhibition.
In addition, a selective inhibition constant of each compound was calculated according to the equation: selective inhibition constant (SI)=CC50/IC50, in order to evaluate the administration safety of each compound.
Based on the value of the selective index SI=CC50/IC50, the anti-osteoporotic differentiation effect of the compound was evaluated according to the following criteria.

| SMILES | IC50 [nM] |
| --- | --- |
| CCOC(=O)c1sc(NC(=O)/C(=N/Nc2ccc(F)cc2C(=O)O)C(C)=O)nc1C [Compound 10] | < 500 |
| CCOC(=O)c1sc(NC(=O)/C(=N/Nc2c(C(=O)O)cccc2C(=O)O)C(C)=O)nc1C [Compound 18] | < 500 |
| CC(=O)/C(=N\Nc1ccccc1C(=O)O)C(=O)Nc1ccccn1 [Compound 25] | < 500 |
